Measurements reported in PubChem BioAssay AID1259294 (Sanger Institute, 2017).

Assay: 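Retest synthetic lethal gene and drug pairs with separate siRNA duplexes in CL40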 (follow-up of hits)
Cell system: human CL40 colorectal cancer cells
Reagent: single siRNA against human genes
Conditions: anchor drug or DMSO vehicle added to knock-down cells: BYL719 1 µM, cetuximab 5 µg/ml, trametinib 10 nM
Detection: 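Cell viability after knock-down with vehicle or drug, each replicate set against non-targeting pool 2 and then averaged; synergy score weighs the observed combined effect against the expected one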
Reading the numbers: synergy score with trametinib and synergy score with BYL719 and synergy score with cetuximab: higher = stronger synergistic (synthetic lethal) killing
Active means: 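a synergy score over 0.10 with BYL719, cetuximab or trametinib marks synergy with a drug; lacking such a score means no synergy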
Calls: active = synergy with a drug; inactive = no synergy
The deposit covers 160 reagents; below is a random part of them. 43 of all reagents (27%) were called active. 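Calls mean synergy with any one drug, not lethality of knock-down alone; BYL719 1 µM, cetuximab 5 µg/ml, trametinib 10 nM barely cut viability.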 Unmarked entries are inactive. The numbers tell different reagents against one gene apart. Further read-outs or replicates are left out here. No sequences are given here. Not given: the amount of reagent, the time to read-out.

The opening 2 entries as a preview:
PINK1 (GeneID 65018) #1 → synergy score with trametinib = -0.113; synergy score with BYL719 = -0.354; synergy score with cetuximab = -0.218
PINK1 (GeneID 65018) #2 → synergy score with trametinib = 0.214 (active); synergy score with BYL719 = -0.11; synergy score with cetuximab = 0.0357

The list itself, from the start:
PINK1 (GeneID 65018) #1 → synergy score with trametinib = -0.113; synergy score with BYL719 = -0.354; synergy score with cetuximab = -0.218
PINK1 (GeneID 65018) #2 → synergy score with trametinib = 0.214 (active); synergy score with BYL719 = -0.11; synergy score with cetuximab = 0.0357
PINK1 (GeneID 65018) #3 → synergy score with trametinib = 0.055; synergy score with BYL719 = -0.139; synergy score with cetuximab = 0.0203
PINK1 (GeneID 65018) #4 → synergy score with trametinib = 0.0959; synergy score with BYL719 = -0.163; synergy score with cetuximab = -0.13
CRIM1 (GeneID 51232) #1 → synergy score with trametinib = -0.108; synergy score with BYL719 = -0.142; synergy score with cetuximab = -0.183
CRIM1 (GeneID 51232) #2 → synergy score with trametinib = -0.205; synergy score with BYL719 = -0.476; synergy score with cetuximab = -0.269
CRIM1 (GeneID 51232) #3 → synergy score with trametinib = -0.0115; synergy score with BYL719 = -0.0319; synergy score with cetuximab = -0.391
CRIM1 (GeneID 51232) #4 → synergy score with trametinib = 0.0111; synergy score with BYL719 = -0.0606; synergy score with cetuximab = -0.211
MAP3K8 (GeneID 1326) #1 → synergy score with trametinib = 0.0334; synergy score with BYL719 = -0.077; synergy score with cetuximab = -0.106
MAP3K8 (GeneID 1326) #2 → synergy score with trametinib = -0.0156; synergy score with BYL719 = -0.156; synergy score with cetuximab = -0.0342
MAP3K8 (GeneID 1326) #3 → synergy score with trametinib = 0.0036; synergy score with BYL719 = -0.215; synergy score with cetuximab = -0.0754
MAP3K8 (GeneID 1326) #4 → synergy score with trametinib = 0.0934; synergy score with BYL719 = -0.0594; synergy score with cetuximab = -0.249
